Measured values reported in paper PMC12170880.
These are yes or no findings as the source states them, for the method shown. Binding calls can cover weak binding; strength is not graded here. For some of these results: Tags and fused reporters may be left off the sequences shown.

Amino acid sequences for entries named in this document (tags omitted). A change or cut given only in a name is not applied to a line headed by its entry. Residues count along the entry.
UniProt F4I0M4: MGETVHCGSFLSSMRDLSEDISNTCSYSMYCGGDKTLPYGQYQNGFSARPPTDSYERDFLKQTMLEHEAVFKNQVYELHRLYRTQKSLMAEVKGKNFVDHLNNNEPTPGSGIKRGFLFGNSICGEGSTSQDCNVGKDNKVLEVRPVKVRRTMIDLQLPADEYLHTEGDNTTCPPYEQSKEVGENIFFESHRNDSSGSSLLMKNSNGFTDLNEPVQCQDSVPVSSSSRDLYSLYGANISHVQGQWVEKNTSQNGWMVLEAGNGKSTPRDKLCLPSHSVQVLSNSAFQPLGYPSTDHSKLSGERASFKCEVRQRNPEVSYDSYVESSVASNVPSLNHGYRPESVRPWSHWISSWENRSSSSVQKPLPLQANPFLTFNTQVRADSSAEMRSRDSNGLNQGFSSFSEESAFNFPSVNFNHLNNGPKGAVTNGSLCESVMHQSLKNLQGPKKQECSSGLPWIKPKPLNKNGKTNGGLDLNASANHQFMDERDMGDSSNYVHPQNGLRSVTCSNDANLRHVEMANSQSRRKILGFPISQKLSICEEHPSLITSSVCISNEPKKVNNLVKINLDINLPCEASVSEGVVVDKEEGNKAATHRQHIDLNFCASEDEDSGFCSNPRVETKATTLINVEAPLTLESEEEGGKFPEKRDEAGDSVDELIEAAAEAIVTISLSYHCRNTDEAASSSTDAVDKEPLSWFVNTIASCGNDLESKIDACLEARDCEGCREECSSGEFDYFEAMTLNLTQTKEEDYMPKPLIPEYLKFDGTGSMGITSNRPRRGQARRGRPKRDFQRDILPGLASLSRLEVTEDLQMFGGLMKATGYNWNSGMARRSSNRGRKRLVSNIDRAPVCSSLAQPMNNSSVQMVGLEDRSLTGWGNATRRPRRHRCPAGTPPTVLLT
UniProt Q9XIE1, residues 1-191: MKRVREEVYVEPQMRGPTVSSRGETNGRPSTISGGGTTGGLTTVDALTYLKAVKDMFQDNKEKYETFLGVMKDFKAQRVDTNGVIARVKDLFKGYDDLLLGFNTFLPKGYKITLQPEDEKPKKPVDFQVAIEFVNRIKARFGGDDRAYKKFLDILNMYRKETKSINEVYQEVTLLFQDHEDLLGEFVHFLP
UniProt Q9XIK6: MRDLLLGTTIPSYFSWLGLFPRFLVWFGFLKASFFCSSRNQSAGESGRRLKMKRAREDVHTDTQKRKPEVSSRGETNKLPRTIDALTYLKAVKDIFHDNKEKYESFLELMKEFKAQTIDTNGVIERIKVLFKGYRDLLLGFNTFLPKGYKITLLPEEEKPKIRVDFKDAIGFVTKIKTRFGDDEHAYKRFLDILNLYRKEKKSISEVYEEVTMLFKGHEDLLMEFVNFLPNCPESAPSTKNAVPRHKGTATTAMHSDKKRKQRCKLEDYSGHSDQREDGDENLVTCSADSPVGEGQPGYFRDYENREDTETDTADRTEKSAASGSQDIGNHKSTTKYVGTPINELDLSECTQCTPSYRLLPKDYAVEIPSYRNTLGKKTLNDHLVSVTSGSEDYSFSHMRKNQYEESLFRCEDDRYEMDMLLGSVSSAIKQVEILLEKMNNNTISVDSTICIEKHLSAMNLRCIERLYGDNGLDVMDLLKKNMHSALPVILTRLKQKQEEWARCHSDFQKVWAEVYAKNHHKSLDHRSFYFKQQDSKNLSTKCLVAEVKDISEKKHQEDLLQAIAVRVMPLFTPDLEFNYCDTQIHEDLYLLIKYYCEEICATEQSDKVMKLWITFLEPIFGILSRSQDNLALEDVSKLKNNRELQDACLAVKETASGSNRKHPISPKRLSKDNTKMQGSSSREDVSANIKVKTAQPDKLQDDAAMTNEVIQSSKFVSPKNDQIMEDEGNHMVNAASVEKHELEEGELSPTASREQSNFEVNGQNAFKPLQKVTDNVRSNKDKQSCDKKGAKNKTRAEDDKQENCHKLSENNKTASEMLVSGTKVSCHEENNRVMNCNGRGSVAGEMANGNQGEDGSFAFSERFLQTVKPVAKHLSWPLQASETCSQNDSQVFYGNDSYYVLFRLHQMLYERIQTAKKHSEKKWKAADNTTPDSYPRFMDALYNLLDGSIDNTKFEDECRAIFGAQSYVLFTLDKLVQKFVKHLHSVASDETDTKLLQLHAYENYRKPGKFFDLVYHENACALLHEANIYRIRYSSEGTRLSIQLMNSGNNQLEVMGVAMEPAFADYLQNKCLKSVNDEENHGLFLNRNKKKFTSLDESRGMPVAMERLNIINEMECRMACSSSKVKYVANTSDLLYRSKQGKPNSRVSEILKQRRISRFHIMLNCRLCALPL

Assays:
[1] = target: T1, HDA19 (two-hybrid fusion) (Arabidopsis thaliana) (UniProt O22446); test: two-hybrid; pGADT7 fusions in AH109 mated with pGBKT7 fusions in Y187; growth on SD-WLH with 3-AT
T1 sequence: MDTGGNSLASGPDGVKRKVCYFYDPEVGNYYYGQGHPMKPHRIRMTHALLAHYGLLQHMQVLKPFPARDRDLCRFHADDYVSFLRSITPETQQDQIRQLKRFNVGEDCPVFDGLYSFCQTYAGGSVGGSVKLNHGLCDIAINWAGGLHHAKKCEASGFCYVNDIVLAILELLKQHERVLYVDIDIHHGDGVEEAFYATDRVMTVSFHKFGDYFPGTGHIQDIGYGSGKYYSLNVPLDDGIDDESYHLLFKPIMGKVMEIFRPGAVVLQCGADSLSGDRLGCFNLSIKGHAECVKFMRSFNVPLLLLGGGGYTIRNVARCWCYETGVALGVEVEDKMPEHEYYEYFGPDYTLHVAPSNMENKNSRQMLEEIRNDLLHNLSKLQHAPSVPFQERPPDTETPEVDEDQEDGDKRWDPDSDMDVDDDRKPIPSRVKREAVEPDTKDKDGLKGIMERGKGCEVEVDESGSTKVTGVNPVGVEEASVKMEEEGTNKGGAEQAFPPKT

[2] = target: GST-HDIP1-4 (631–720 aa) (Arabidopsis thaliana) (UniProt F4I0M4); test: pull-down; pairs of GST-, MBP- or His-tagged proteins incubated with GST or MBP beads 2 h at 4 °C, five washes with lysis buffer, elution, western blot with anti-GST, anti-MBP or anti-His; both purified
[3] = target: T2, GST-HDA19 (Arabidopsis thaliana) (UniProt O22446); test: as above
T2 sequence: T1 sequence

Substance | binding [2] | other results
HDIP1 (full length, two-hybrid fusion) (Arabidopsis thaliana) |  | binding [1]: binds
His-SNL5-3 (1–191 aa) (from UniProt Q9XIE1 1-191) (domain or fragment) | binds | 
MBP-HDIP3-C (906–1005 aa) (from UniProt Q9LMG4) (domain or fragment) |  | binding [3]: binds
His-SNL6-3 (1–179 aa) (from UniProt Q9XIK6) (domain or fragment) | binds | 
